These are yes or no findings as the source states them, for the method shown. Some entries that bind do so weakly or less than the wild type.

Data on one molecule can be found in article PMC7618075.

For the experiment, the target named is T1, recombinant human CASPR2 protein (human) (UniProt Q9UHC6).
T1 sequence: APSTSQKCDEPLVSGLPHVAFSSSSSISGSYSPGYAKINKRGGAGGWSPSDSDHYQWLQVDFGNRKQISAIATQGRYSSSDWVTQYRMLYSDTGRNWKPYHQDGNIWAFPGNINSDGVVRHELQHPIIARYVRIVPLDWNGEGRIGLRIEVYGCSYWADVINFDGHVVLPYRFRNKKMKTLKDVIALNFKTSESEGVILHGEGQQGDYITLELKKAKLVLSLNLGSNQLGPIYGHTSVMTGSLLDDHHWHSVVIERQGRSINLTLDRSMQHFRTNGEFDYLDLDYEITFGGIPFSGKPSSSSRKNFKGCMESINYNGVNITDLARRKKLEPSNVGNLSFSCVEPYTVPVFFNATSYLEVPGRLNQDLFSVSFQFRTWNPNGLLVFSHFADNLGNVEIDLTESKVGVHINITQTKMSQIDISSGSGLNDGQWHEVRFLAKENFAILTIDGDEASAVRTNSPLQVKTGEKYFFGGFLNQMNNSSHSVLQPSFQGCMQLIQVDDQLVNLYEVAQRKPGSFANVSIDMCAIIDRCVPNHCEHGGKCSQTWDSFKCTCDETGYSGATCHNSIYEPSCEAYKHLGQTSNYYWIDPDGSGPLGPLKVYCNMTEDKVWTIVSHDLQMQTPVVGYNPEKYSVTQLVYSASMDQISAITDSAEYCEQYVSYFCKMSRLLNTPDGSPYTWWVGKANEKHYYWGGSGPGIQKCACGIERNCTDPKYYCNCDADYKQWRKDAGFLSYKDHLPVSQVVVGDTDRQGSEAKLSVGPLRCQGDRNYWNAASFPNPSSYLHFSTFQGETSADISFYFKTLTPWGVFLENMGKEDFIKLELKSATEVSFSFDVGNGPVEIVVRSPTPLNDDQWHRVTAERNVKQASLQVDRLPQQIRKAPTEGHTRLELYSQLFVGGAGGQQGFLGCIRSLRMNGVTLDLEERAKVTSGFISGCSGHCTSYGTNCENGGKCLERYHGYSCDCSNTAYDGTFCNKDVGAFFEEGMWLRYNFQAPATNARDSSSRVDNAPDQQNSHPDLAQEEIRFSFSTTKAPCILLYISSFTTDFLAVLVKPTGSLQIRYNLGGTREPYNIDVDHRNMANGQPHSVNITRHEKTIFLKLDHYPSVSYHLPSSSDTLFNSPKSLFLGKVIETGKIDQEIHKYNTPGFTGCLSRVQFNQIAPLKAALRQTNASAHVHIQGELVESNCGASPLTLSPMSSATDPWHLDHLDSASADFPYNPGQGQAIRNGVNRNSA
Briefly: ELISA; solid phase binding assay; 100 ng/well CASPR2 coated in 20 mM Tris pH 8.0, 100 mM NaCl, 5 mM CaCl2; 100 ng contactin 2 for 1 h at RT; CASPR2 mAbs or isotype control then added in dilution series; contactin 2 detected with mouse anti-human contactin 2 antibody and HRP anti-mouse IgG; both purified. (In general: ELISA stands for enzyme-linked immunosorbent assay.)

B1: contactin 2 (protein, UniProt Q02246 31-1012)
chain: SQTTFGPVFEDQPLSVLFPEESTEEQVLLACRARASPPATYRWKMNGTEMKLEPGSRHQLVGGNLVIMNPTKAQDAGVYQCLASNPVGTVVSREAILRFGFLQEFSKEERDPVKAHEGWGVMLPCNPPAHYPGLSYRWLLNEFPNFIPTDGRHFVSQTTGNLYIARTNASDLGNYSCLATSHMDFSTKSVFSKFAQLNLAAEDTRLFAPSIKARFPAETYALVGQQVTLECFAFGNPVPRIKWRKVDGSLSPQWTTAEPTLQIPSVSFEDEGTYECEAENSKGRDTVQGRIIVQAQPEWLKVISDTEADIGSNLRWGCAAAGKPRPTVRWLRNGEPLASQNRVEVLAGDLRFSKLSLEDSGMYQCVAENKHGTIYASAELAVQALAPDFRLNPVRRLIPAARGGEILIPCQPRAAPKAVVLWSKGTEILVNSSRVTVTPDGTLIIRNISRSDEGKYTCFAENFMGKANSTGILSVRDATKITLAPSSADINLGDNLTLQCHASHDPTMDLTFTWTLDDFPIDFDKPGGHYRRTNVKETIGDLTILNAQLRHGGKYTCMAQTVVDSASKEATVLVRGPPGPPGGVVVRDIGDTTIQLSWSRGFDNHSPIAKYTLQARTPPAGKWKQVRTNPANIEGNAETAQVLGLTPWMDYEFRVIASNILGTGEPSGPSSKIRTREAAPSVAPSGLSGGGGAPGELIVNWTPMSREYQNGDGFGYLLSFRRQGSTHWQTARVPGADAQYFVYSNESVRPYTPFEVKIRSYNRRGDGPESLTALVYSAEEEPRVAPTKVWAKGVSSSEMNVTWEPVQQDMNGILLGYEIRYWKAGDKEAAADRVRTAGLDTSARVSGLHPNTKYHVTVRAYNRAGTGPASPSANATTMKPPPRRPPGNISWTFSSSSLSIKWDPVVPFRNESAVTGYKMLYQNDLHLTPTLHLTGKNWIEIPVPEDIGHALVQIRTTGPGGDGIPAEVHIVRNGGTSMMVEN
Regarding B1, the binding result was “binds”.
